Data source: PubChem BioAssay AID504764 (Drosophila RNAi Screening Center, 2011)

Purpose: 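Genes whose knock-down alters Notch-dependent transcription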 (primary screen)
Cells: Drosophila Kc167 cells
Knock-down reagent: long dsRNA against Drosophila genes
Time to read-out: about 5 days (4 days dsRNA, then 24 h after transfection)
Treatment: transfection of constitutively active membrane-tethered Notch lacking the extracellular domain, read 24 h later
Detection: 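Light from a Notch-responsive E(spl)m3 luciferase reporter under active Notch, with control-promoter and no-Notch reporter wells to normalise; raw counts from paired wells a and b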
Direction: induced reporter light, run 1, well a and induced reporter light, run 1, well b: higher = more light from the Notch target reporter with active Notch; control promoter light, run 1, well a and control promoter light, run 1, well b: higher = more light from the viral control promoter (cell number, transfection, viability); uninduced reporter light, run 1, well a: higher = more light from the Notch target reporter without active Notch
Call rule: 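Wells with low control signal or poorly matching duplicates excluded; duplicates averaged; per source plate, z beyond ±2 for induced/control log2 ratio or beyond ±1.8 for induced/uninduced marks a hit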
Calls: active = modifier hit (raised or lowered Notch signal); inactive = not a hit
In all, the deposit lists about 22,000 reagents; shown is a random part of those with a known target gene and a result. Over the whole deposit, 403 (1.9%) were called active. 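Unnormalised raw counts per well; ratio z-scores behind the hit calls and whether each hit raises or lowers signal are not deposited.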 Not stated in the record: the amount of reagent.

no.	gene	DRSC id	induced reporter light, run 1, well a	induced reporter light, run 1, well b	control promoter light, run 1, well a	control promoter light, run 1, well b	uninduced reporter light, run 1, well a	call
1	Nprl3 (Nitrogen permease regulator-like 3)	DRSC11044	1.50e5	1.46e5	1.27e5	1.30e5	12270	inactive
2	stck (steamer duck)	DRSC17070	1.11e5	1.23e5	1.15e5	85040	7775	inactive
3	CG4210	DRSC15551	1.97e5	1.84e5	1.80e5	1.85e5	15780	inactive
4	Polr2M (RNA polymerase II subunit M)	DRSC15513	2.65e5	1.86e5	2.41e5	2.36e5	15600	inactive
5	Rbp (RIM-binding protein)	DRSC15724	61445	65705	71700	62485	7390	inactive
6	Rbp (RIM-binding protein)	DRSC15726	2.11e5	2.04e5	1.21e5	1.24e5	15505	inactive
7	Nedd8 (Nedd8 ubiquitin like modifier)	DRSC02092	19870	15265	19595	28335	1420	inactive
8	CG34221	DRSC06150	2.07e5	2.03e5	3.07e5	2.72e5	20910	inactive
9	CG7565	DRSC10881	1.30e5	1.42e5	1.09e5	72430	13270	inactive
10	CG13075	DRSC09958	1.41e5	1.32e5	1.65e5	1.70e5	9185	inactive
11	CG2617	DRSC02712	67175	57270	44635	71450	3635	inactive
12	CG13331	DRSC06366	91260	93555	1.10e5	1.26e5	9600	inactive
13	CG11737	DRSC14364	81400	92290	73710	58175	6325	inactive
14	CG34032 (retired record)	DRSC09225	2.30e5	2.63e5	2.41e5	2.53e5	21692	inactive
15	Nepl14 (Neprilysin-like 14)	DRSC15631	2.28e5	2.02e5	2.45e5	1.93e5	17770	inactive
16	kar (karmoisin)	DRSC14496	1.34e5	1.15e5	87550	70555	11770	inactive
17	dbo (diablo)	DRSC11339	1.81e5	1.42e5	1.87e5	1.84e5	8685	inactive
18	bigmax	DRSC15481	1.80e5	2.30e5	3.21e5	3.36e5	15260	inactive
19	CG9399	DRSC16488	55290	60415	39150	35715	3035	inactive

3 entries already listed, sorted by “induced reporter light, run 1, well a”, high to low:
gene	DRSC id	induced reporter light, run 1, well a	induced reporter light, run 1, well b	control promoter light, run 1, well a	control promoter light, run 1, well b	uninduced reporter light, run 1, well a	call
dbo (diablo)	DRSC11339	1.81e5	1.42e5	1.87e5	1.84e5	8685	inactive
bigmax	DRSC15481	1.80e5	2.30e5	3.21e5	3.36e5	15260	inactive
CG9399	DRSC16488	55290	60415	39150	35715	3035	inactive

The results go on:
no.	gene	DRSC id	induced reporter light, run 1, well a	induced reporter light, run 1, well b	control promoter light, run 1, well a	control promoter light, run 1, well b	uninduced reporter light, run 1, well a	call
20	rtet (tetracycline resistance)	DRSC14160	1.65e5	1.68e5	1.53e5	1.68e5	13220	inactive
21	Ir94e (Ionotropic receptor 94e)	DRSC15229	1.53e5	1.18e5	1.85e5	1.60e5	12528	inactive
22	CG9616	DRSC16518	3.11e5	3.54e5	3.09e5	3.46e5	22040	inactive
23	CG12498	DRSC18635	1.32e5	1.24e5	3.27e5	1.83e5	9020	inactive
24	CG9590	DRSC16506	1.12e5	2.68e5	3.09e5	4.43e5	15865	inactive
25	CG4424	DRSC15576	1.55e5	1.65e5	2.00e5	2.28e5	14688	inactive
26	CG32462	DRSC11851	1.06e5	1.05e5	69370	69940	8728	inactive
27	Ocho	DRSC11239	1.77e5	2.00e5	2.41e5	2.51e5	9815	inactive
28	CG12106	DRSC17805	1.59e5	1.77e5	2.39e5	2.10e5	15232	inactive
29	Vav (Vav guanine nucleotide exchange factor)	DRSC20384	96510	94605	1.15e5	1.24e5	11115	inactive
30	Sam-S (S-adenosylmethionine Synthetase)	DRSC00758	1.91e5	2.21e5	2.13e5	2.13e5	21000	inactive
31	CG12986	DRSC19506	61980	51660	64670	52070	8515	inactive
32	E(spl)m5-HLH (Enhancer of split m5, helix-loop-helix)	DRSC16695	1.49e5	1.64e5	1.92e5	2.23e5	12478	inactive
33	Prosbeta4 (Proteasome beta4 subunit)	DRSC02603	57910	59655	64745	60615	3765	inactive
34	Dhrs4 (Dehydrogenase/reductase 4)	DRSC09773	1.32e5	1.36e5	1.04e5	63995	10800	inactive
35	CG13700	DRSC10049	1.93e5	1.75e5	2.45e5	2.45e5	8300	inactive
36	CG2233	DRSC18217	2.41e5	2.22e5	3.26e5	3.36e5	14825	inactive
37	Nlg4 (Neuroligin 4)	DRSC15108	1.23e5	1.45e5	1.50e5	1.51e5	9510	inactive
38	Nlg4 (Neuroligin 4)	DRSC15109	1.77e5	1.61e5	1.93e5	2.27e5	12400	inactive
39	Nlg4 (Neuroligin 4)	DRSC15700	1.61e5	1.36e5	1.80e5	1.78e5	11160	inactive
40	Nlg4 (Neuroligin 4)	DRSC15701	11585	12570	11955	9880	2865	inactive
41	Nlg4 (Neuroligin 4)	DRSC22243						active
42	spen (split ends)	DRSC00839	2.03e5	2.01e5	1.69e5	1.82e5	15170	inactive
43	L (Lobe)	DRSC06666	59850	69610	92005	88140	7182	inactive
44	L (Lobe)	DRSC06668	72580	78680	1.05e5	88930	7770	inactive
45	c12.1	DRSC18750	1.10e5	1.06e5	1.00e5	1.08e5	8675	inactive
46	CG33127	DRSC00011	1.39e5	1.08e5	1.64e5	1.82e5	8400	inactive
47	Obp28a (Odorant-binding protein 28a)	DRSC03394	1.51e5	1.23e5	2.41e5	2.00e5	9195	active
48	CG12093	DRSC08252	1.19e5	82040	2.26e5	1.71e5	8350	inactive
49	CG18418	DRSC08535	1.18e5	1.12e5	69855	41915	9230	inactive
50	CG9162 (retired record)	DRSC03151	1.78e5	1.81e5	1.88e5	2.01e5	15295	inactive
